Earlier results on 1 compound are cited in patent US10010502B2, “Device that delivers a sustained low-dose of a myopia-suppressing drug, while preserving pupillary function and accommodation” (AMORPHEX THERAPEUTICS LLC, priority 2015, dated 2018).

Where two headings read alike, the source gives them in different places.

This data set deals with myopia progression.

Take `CN1[C@@H]2CC[C@H]1C[C@@H](OC(=O)C(CO)c1ccccc1)C2` (some centres unmarked) [atropine]: the “children asking for tinted glasses” value reads like this: (higher dose groups) above 60%; (lower dose study group) 6%.
